Source: the supplement of paper PMC10849652
The other results are listed elsewhere or left out.

Sequences of proteins named here, by UniProt entry; tags and fusion partners are left off. A change or cut given only in a name is not applied to a line headed by its entry.
UniProt Q96AK3: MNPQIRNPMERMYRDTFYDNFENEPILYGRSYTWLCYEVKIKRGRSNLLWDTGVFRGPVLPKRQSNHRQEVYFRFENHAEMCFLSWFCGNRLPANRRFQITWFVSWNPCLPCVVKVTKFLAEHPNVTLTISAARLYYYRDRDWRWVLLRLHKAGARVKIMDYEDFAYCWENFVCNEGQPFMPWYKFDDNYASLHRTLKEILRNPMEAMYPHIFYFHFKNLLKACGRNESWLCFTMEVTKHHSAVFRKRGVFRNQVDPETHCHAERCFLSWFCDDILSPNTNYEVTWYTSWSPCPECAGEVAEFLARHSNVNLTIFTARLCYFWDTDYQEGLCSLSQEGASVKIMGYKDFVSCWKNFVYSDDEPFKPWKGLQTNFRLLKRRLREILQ
UniProt Q9H993: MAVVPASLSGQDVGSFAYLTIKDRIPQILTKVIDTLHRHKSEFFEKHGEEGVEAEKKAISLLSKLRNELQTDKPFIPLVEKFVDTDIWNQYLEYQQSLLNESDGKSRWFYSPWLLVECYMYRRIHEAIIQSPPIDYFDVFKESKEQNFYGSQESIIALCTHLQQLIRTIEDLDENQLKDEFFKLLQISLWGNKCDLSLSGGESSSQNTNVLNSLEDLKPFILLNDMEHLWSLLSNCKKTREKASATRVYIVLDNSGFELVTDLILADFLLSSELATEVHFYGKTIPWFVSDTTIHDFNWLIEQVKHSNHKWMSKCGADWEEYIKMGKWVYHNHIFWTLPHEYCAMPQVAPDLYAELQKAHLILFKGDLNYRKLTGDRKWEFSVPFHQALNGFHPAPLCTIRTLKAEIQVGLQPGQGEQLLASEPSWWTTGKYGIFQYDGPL
UniProt P32121, whole entry, looked up: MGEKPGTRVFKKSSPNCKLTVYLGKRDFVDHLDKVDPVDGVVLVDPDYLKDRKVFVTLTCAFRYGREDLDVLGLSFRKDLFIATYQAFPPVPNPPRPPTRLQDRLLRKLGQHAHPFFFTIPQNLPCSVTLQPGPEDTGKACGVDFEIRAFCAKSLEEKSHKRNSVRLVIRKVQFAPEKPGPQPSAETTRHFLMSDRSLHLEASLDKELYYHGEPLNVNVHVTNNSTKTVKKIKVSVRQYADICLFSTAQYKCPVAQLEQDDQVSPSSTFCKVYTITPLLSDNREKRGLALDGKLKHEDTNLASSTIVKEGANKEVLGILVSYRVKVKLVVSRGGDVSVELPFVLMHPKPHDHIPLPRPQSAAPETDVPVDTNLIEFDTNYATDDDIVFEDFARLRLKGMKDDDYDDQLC
UniProt Q9BUR5: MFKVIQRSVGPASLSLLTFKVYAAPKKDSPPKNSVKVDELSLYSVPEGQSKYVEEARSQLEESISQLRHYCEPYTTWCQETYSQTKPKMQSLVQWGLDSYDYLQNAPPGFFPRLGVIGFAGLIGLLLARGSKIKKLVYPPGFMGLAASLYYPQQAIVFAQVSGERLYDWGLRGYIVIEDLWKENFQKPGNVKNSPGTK
UniProt Q8IWW6: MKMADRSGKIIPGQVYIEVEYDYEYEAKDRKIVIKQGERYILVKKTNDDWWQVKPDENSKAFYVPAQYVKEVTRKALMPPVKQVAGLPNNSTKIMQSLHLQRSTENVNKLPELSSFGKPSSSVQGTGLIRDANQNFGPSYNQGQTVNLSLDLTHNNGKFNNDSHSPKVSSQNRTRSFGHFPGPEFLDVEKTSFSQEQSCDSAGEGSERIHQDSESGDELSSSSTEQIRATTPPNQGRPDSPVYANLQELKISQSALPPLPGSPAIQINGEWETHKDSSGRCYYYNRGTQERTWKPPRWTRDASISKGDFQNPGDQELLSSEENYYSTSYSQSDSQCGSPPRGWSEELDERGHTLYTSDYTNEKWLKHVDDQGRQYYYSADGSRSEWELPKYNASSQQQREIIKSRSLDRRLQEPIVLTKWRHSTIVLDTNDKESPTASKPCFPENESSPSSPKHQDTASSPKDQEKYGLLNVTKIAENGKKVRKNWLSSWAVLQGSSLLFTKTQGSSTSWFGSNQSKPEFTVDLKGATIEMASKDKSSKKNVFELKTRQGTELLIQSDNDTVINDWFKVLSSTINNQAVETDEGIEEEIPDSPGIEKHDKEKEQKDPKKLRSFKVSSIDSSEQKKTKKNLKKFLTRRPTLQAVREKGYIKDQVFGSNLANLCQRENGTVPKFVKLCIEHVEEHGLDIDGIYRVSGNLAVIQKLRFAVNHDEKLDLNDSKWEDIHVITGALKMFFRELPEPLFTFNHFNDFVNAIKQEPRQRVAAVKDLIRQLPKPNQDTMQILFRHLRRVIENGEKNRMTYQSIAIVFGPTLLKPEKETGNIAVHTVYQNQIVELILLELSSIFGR
UniProt P27540, whole entry, looked up: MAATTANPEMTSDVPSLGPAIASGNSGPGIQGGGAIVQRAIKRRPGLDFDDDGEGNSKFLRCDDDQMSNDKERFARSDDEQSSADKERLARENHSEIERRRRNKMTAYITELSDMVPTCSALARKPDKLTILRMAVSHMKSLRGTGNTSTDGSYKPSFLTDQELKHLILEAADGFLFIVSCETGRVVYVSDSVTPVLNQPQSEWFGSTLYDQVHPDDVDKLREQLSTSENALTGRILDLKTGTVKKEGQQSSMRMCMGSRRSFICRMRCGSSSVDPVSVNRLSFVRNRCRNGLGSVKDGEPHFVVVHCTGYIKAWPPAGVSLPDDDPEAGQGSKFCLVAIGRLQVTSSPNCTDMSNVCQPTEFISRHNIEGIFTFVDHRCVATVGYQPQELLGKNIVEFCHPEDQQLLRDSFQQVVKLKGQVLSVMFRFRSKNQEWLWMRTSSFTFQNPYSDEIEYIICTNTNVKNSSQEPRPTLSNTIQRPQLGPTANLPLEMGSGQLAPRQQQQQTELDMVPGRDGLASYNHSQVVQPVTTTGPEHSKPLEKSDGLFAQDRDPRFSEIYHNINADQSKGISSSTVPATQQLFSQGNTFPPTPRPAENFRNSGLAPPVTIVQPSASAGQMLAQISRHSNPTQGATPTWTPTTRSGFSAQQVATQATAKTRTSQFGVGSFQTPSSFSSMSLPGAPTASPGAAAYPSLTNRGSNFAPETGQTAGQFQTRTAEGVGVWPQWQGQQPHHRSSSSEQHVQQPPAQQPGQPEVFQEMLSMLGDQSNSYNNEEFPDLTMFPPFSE
UniProt Q9UKG1: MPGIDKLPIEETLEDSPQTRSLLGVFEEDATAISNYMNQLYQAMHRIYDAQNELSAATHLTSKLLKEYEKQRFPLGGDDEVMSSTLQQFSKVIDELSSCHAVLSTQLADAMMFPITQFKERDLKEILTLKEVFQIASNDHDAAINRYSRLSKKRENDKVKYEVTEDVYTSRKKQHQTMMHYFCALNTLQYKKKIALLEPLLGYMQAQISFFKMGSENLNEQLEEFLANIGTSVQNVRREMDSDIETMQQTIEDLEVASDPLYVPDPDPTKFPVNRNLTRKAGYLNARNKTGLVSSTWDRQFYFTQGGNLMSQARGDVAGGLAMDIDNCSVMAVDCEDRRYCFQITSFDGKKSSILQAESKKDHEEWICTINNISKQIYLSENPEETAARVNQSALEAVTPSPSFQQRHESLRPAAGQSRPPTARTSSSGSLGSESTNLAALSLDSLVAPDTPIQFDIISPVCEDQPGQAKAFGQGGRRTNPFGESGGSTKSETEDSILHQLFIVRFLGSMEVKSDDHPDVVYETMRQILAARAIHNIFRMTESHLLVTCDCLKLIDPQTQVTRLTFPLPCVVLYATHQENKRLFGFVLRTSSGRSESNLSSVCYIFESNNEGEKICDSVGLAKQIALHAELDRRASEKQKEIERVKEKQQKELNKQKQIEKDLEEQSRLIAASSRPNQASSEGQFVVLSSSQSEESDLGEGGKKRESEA
UniProt Q9NVJ2: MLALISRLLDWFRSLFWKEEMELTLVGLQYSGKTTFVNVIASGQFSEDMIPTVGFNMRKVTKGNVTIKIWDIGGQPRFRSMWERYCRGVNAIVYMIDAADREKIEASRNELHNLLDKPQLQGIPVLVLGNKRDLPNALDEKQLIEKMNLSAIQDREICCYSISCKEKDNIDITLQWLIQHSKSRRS
UniProt Q92747, whole entry, looked up: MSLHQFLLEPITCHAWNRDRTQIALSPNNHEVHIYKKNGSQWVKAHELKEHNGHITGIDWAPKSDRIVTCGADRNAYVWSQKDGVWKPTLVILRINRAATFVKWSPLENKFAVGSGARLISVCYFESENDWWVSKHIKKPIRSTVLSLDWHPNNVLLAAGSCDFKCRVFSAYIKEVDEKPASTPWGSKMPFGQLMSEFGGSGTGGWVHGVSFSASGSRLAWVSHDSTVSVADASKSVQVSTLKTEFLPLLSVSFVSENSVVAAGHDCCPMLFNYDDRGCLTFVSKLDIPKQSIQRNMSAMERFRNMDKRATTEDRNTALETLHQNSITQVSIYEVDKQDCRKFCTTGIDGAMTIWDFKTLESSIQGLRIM
UniProt Q8TDY4: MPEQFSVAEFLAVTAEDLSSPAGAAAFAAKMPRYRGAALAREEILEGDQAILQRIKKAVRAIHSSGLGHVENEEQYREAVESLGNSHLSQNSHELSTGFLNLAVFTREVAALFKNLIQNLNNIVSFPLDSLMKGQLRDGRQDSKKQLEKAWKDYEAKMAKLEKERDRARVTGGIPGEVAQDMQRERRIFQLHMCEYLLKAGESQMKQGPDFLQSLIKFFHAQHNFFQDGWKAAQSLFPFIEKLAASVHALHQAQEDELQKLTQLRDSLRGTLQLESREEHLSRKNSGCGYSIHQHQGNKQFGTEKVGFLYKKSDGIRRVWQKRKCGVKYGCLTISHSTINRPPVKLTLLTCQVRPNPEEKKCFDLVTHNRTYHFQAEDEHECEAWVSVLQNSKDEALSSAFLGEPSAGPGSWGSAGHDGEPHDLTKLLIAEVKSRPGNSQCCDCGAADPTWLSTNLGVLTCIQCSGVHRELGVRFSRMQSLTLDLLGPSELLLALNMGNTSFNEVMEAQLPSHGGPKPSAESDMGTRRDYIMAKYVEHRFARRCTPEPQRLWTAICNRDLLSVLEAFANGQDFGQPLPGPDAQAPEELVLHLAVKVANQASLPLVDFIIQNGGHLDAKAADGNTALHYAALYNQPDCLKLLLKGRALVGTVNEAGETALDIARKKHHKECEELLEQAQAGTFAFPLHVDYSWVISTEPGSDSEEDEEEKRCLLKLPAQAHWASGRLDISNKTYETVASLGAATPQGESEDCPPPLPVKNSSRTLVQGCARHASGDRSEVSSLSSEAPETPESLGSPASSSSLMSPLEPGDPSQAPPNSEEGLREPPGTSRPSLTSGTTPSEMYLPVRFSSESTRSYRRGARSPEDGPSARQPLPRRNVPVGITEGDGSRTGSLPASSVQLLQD
UniProt P52565: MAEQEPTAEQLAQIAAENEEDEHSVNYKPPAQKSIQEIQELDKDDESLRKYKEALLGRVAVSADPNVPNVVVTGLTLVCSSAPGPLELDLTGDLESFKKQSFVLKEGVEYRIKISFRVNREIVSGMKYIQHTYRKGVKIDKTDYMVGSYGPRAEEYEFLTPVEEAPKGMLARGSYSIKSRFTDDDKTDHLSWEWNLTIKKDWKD
UniProt Q14155: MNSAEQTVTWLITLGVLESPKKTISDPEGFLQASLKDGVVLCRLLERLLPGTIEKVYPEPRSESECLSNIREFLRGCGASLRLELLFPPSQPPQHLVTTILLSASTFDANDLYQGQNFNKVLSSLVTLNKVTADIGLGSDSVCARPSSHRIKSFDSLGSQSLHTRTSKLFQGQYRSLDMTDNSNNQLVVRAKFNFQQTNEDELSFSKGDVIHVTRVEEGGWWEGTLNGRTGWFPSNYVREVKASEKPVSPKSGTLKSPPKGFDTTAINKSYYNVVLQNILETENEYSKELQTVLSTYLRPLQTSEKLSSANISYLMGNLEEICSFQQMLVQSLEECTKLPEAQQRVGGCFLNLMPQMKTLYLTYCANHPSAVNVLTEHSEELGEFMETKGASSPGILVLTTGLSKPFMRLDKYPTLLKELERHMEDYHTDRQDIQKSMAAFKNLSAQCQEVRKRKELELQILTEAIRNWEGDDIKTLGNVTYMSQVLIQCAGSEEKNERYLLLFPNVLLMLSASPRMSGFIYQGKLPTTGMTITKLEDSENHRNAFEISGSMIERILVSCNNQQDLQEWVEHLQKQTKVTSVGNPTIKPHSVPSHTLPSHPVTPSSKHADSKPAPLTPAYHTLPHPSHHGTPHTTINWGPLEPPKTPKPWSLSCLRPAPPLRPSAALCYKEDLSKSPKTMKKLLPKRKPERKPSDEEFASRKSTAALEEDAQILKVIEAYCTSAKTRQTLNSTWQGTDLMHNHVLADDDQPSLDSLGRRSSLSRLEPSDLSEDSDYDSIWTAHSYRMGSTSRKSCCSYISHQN

Assays:
Assay in all cases: log2 fold change, soluble protein after heating vs DMSO (PISA); higher = thermal stabilisation; K562 lysate, 10 uM; active = over 0.2 and 3.5 SD of the protein, either way, in both replicates (recomputed)
alvocidib = compound: CN1CC[C@H](c2c(O)cc(O)c3c(=O)cc(-c4ccccc4Cl)oc23)[C@H](O)C1 [alvocidib]
Procedure, shortened: (§1)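 To prepare the extract, K562 pellets were dounce-homogenised in PBS pH 7.4 with 1 mM MgCl2, giving crude material at 1 mg/mL protein. This was treated with 10 μM compound for 30 min, then heated in aliquots for 3 min over 48°C-58°C before pooling and addition of NP-40 to 0.5% at 4°C. Centrifugation at 21,000xg for 90 min left soluble protein in the supernatant, which TMTpro 16plex LC-MS/MS quantified with equalised channel sums. Results are log-two fold changes in thermal stability compared with solvent controls, from duplicates.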

Tubastatin A = compound: CN1CCc2c(c3ccccc3n2Cc2ccc(C(=O)NO)cc2)C1 [Tubastatin A]
Procedure, shortened: as §1

[1] = compound: CNC(=O)C1=CC=CC=C1NC2=NC(=NC=C2Cl)NC3=C(C=C(C=C3)N4CCOCC4)OC
Procedure, shortened: as §1

defactinib = compound: CNC(=O)c1ccc(Nc2ncc(C(F)(F)F)c(NCc3nccnc3N(C)S(C)(=O)=O)n2)cc1 [defactinib]
Procedure, shortened: as §1

[2] = compound: CNc1nc(-c2ccc3c(N)n[nH]c3c2)cc(N2C[C@@H](C(=O)NC3CCCCC3)CC[C@H]2C)n1
Procedure, shortened: as §1

encorafenib = compound: COC(=O)N[C@@H](C)CNc1nccc(-c2cn(C(C)C)nc2-c2cc(Cl)cc(NS(C)(=O)=O)c2F)n1 [encorafenib]
Procedure, shortened: as §1

[3] = compound: COC(=O)[C@H](CCSC)NC(=O)C1=C(C=C(C=C1)NC[C@H](CS)N)C2=CC=CC=C2
Procedure, shortened: as §1

alisertib = compound: COc1cc(Nc2ncc3c(n2)-c2ccc(Cl)cc2C(c2c(F)cccc2OC)=NC3)ccc1C(=O)O [alisertib]
Procedure, shortened: as §1

[4] = compound: COc1cc2nc(-c3cc(F)ccc3O)nc(N[C@@H]3CNC[C@H]3C(C)(C)O)c2cc1OC
Procedure, shortened: as §1

gefitinib = compound: COc1cc2ncnc(Nc3ccc(F)c(Cl)c3)c2cc1OCCCN1CCOCC1 [gefitinib]
Procedure, shortened: as §1

lapatinib = compound: CS(=O)(=O)CCNCc1ccc(-c2ccc3ncnc(Nc4ccc(OCc5cccc(F)c5)c(Cl)c4)c3c2)o1 [lapatinib]
Procedure, shortened: as §1

pictilisib = compound: CS(=O)(=O)N1CCN(Cc2cc3nc(-c4cccc5[nH]ncc45)nc(N4CCOCC4)c3s2)CC1 [pictilisib]
Procedure, shortened: as §1

crizotinib = compound: C[C@@H](Oc1cc(-c2cnn(C3CCNCC3)c2)cnc1N)c1c(Cl)ccc(F)c1Cl [crizotinib]
Procedure, shortened: as §1

[5] = compound: C[C@H](C1=CC=C(C=C1)C(=O)NC2=C3C=CNC3=NC=C2)N
Procedure, shortened: as §1

duvelisib = compound: C[C@H](Nc1ncnc2nc[nH]c12)c1cc2cccc(Cl)c2c(=O)n1-c1ccccc1 [duvelisib]
Procedure, shortened: as §1

gandotinib = compound: Cc1cc(Nc2cc(CN3CCOCC3)c3nc(C)c(Cc4ccc(Cl)cc4F)n3n2)n[nH]1 [gandotinib]
Procedure, shortened: as §1

tozasertib = compound: Cc1cc(Nc2cc(N3CCN(C)CC3)nc(Sc3ccc(NC(=O)C4CC4)cc3)n2)n[nH]1 [tozasertib]
Procedure, shortened: as §1

doramapimod = compound: Cc1ccc(-n2nc(C(C)(C)C)cc2NC(=O)Nc2ccc(OCCN3CCOCC3)c3ccccc23)cc1 [doramapimod]
Procedure, shortened: as §1

bafetinib = compound: Cc1ccc(NC(=O)c2ccc(CN3CC[C@H](N(C)C)C3)c(C(F)(F)F)c2)cc1Nc1nccc(-c2cncnc2)n1 [bafetinib]
Procedure, shortened: as §1

[6] = compound: Cc1cccc(CC(=O)N2CCc3c2ccc(-c2cn(C)c4ncnc(N)c24)c3F)n1
Procedure, shortened: as §1

Measured: log2 fold change

ARHGAP18 (UniProt Q8N392)
inactive: alvocidib -0.013 | Tubastatin A 0.008 | [1] 0.022 | defactinib -0.022 | [2] 0.053 | encorafenib 0.007 | [3] 0.093 | alisertib -0.005 | [4] 0 | gefitinib -0.019 | lapatinib -0.023 | pictilisib -0.024 | crizotinib -0.05 | [5] -0.012 | duvelisib -0.013 | gandotinib 0.002 | tozasertib 0.022 | doramapimod 0.078 | bafetinib -0.04 | [6] 0.031

APOBEC3D (UniProt Q96AK3)
inactive: alvocidib -0.01 | Tubastatin A -0.041 | [1] -0.032 | defactinib 0.004 | [2] 0.026 | encorafenib 0.051 | [3] -0.078 | alisertib 0.002 | [4] -0.027 | gefitinib -0.023 | lapatinib -0.033 | pictilisib -0.021 | crizotinib 0.022 | [5] 0.019 | duvelisib -0.033 | gandotinib -0.073 | tozasertib 0.03 | doramapimod -0.004 | bafetinib -0.114 | [6] 0.1

ARMT1 (UniProt Q9H993)
inactive: alvocidib 0.043 | Tubastatin A -0.123 | [1] -0.042 | defactinib 0.008 | [2] -0.062 | encorafenib -0.005 | [3] 0.164 | alisertib 0.013 | [4] 0.003 | gefitinib -0.029 | lapatinib -0.016 | pictilisib -0.031 | crizotinib -0.06 | [5] 0.066 | duvelisib 0.009 | gandotinib -0.111 | tozasertib -0.001 | doramapimod 0.005 | bafetinib -0.073 | [6] 0.019

ARHGAP6 (UniProt O43182)
inactive: alvocidib 0.003 | Tubastatin A -0.201 | [1] 0.129 | defactinib 0.012 | [2] -0.017 | encorafenib 0.06 | [3] 0.063 | alisertib 0.017 | [4] -0.012 | gefitinib -0.069 | lapatinib 0.006 | pictilisib 0.012 | crizotinib -0.038 | [5] 0.106 | duvelisib 0.001 | gandotinib -0.097 | tozasertib 0.004 | doramapimod -0.003 | bafetinib -0.055 | [6] -0.022

Looked up one by one from the list above (2):
ARHGAP18 (UniProt Q8N392)
inactive: alvocidib -0.013 | Tubastatin A 0.008 | [1] 0.022 | defactinib -0.022 | [2] 0.053 | encorafenib 0.007 | [3] 0.093 | alisertib -0.005 | [4] 0 | gefitinib -0.019 | lapatinib -0.023 | pictilisib -0.024 | crizotinib -0.05 | [5] -0.012 | duvelisib -0.013 | gandotinib 0.002 | tozasertib 0.022 | doramapimod 0.078 | bafetinib -0.04 | [6] 0.031

ARMT1 (UniProt Q9H993)
inactive: alvocidib 0.043 | Tubastatin A -0.123 | [1] -0.042 | defactinib 0.008 | [2] -0.062 | encorafenib -0.005 | [3] 0.164 | alisertib 0.013 | [4] 0.003 | gefitinib -0.029 | lapatinib -0.016 | pictilisib -0.031 | crizotinib -0.06 | [5] 0.066 | duvelisib 0.009 | gandotinib -0.111 | tozasertib -0.001 | doramapimod 0.005 | bafetinib -0.073 | [6] 0.019

Following part.

ARRB2 isoform 3 (UniProt P32121)
inactive: alvocidib -0.038 | Tubastatin A 0.028 | [1] -0.011 | defactinib -0.026 | [2] 0.066 | encorafenib -0.011 | [3] -0.013 | alisertib -0.01 | [4] 0.036 | gefitinib 0.028 | lapatinib -0.031 | pictilisib -0.058 | crizotinib -0.03 | [5] -0.127 | duvelisib 0.022 | gandotinib 0.031 | tozasertib -0.031 | doramapimod 0.024 | bafetinib 0.018 | [6] 0.034

APOO (UniProt Q9BUR5)
inactive: alvocidib 0.066 | Tubastatin A -0.083 | [1] 0.014 | defactinib 0.003 | [2] 0.001 | encorafenib 0.07 | [3] 0.012 | alisertib 0.006 | [4] -0.03 | gefitinib -0.033 | lapatinib -0.058 | pictilisib -0.032 | crizotinib 0.028 | [5] -0.034 | duvelisib 0.002 | gandotinib -0.052 | tozasertib 0.182 | doramapimod -0.005 | bafetinib -0.03 | [6] 0.022

ARPC5 (UniProt O15511)
inactive: alvocidib 0.001 | Tubastatin A 0.052 | [1] 0.02 | defactinib -0.024 | [2] 0.027 | encorafenib -0.029 | [3] -0.021 | alisertib -0.005 | [4] -0.001 | gefitinib 0.018 | lapatinib -0.043 | pictilisib -0.001 | crizotinib 0.033 | [5] -0.036 | duvelisib 0 | gandotinib 0.03 | tozasertib 0.029 | doramapimod -0.008 | bafetinib -0.001 | [6] -0.004

ARHGAP12 (UniProt Q8IWW6)
inactive: alvocidib -0.103 | Tubastatin A 0.103 | [1] 0 | defactinib -0.029 | [2] 0.167 | encorafenib -0.032 | [3] 0.009 | alisertib 0.02 | [4] 0.023 | gefitinib 0.009 | lapatinib 0.062 | pictilisib -0.043 | crizotinib -0.026 | [5] -0.16 | duvelisib -0.014 | gandotinib 0.205 | tozasertib -0.076 | doramapimod -0.008 | bafetinib 0.015 | [6] 0.15

ARNT (UniProt P27540)
inactive: alvocidib -0.026 | Tubastatin A -0.03 | [1] 0.053 | defactinib -0.014 | [2] 0.075 | encorafenib 0.043 | [3] 0.03 | alisertib 0.043 | [4] -0.019 | gefitinib 0.022 | lapatinib 0.074 | pictilisib 0.027 | crizotinib 0.048 | [5] -0.051 | duvelisib -0.002 | gandotinib 0.07 | tozasertib 0.02 | doramapimod 0.012 | bafetinib 0.014 | [6] 0.065

APPL1 (UniProt Q9UKG1)
inactive: alvocidib 0.024 | Tubastatin A 0.029 | [1] 0.017 | defactinib -0.029 | [2] 0.077 | encorafenib -0.056 | [3] 0.052 | alisertib 0.011 | [4] 0.021 | gefitinib -0.02 | lapatinib -0.032 | pictilisib -0.011 | crizotinib -0.054 | [5] 0.081 | duvelisib 0.029 | gandotinib -0.037 | tozasertib -0.024 | doramapimod 0.052 | bafetinib -0.029 | [6] -0.036

ARL8B (UniProt Q9NVJ2)
inactive: alvocidib -0.077 | Tubastatin A -0.031 | [1] 0 | defactinib 0.036 | [2] 0.011 | encorafenib 0.04 | [3] -0.05 | alisertib 0.029 | [4] 0.053 | gefitinib 0.042 | lapatinib 0.022 | pictilisib 0.005 | crizotinib -0.033 | [5] -0.09 | duvelisib 0.044 | gandotinib 0.064 | tozasertib -0.046 | doramapimod 0.057 | bafetinib 0.051 | [6] 0.127

ARPIN isoform 2 (UniProt Q7Z6K5)
inactive: alvocidib -0.143 | Tubastatin A -0.016 | [1] -0.03 | defactinib 0 | [2] 0.114 | encorafenib -0.114 | [3] -0.26 | alisertib -0.077 | [4] -0.013 | gefitinib 0.005 | lapatinib -0.01 | pictilisib 0.028 | crizotinib -0.061 | [5] -0.015 | duvelisib -0.045 | gandotinib -0.056 | tozasertib 0.185 | doramapimod 0.113 | bafetinib -0.078 | [6] 0.155

ARPC1A (UniProt Q92747)
inactive: alvocidib -0.029 | Tubastatin A 0.016 | [1] 0.008 | defactinib 0.018 | [2] -0.01 | encorafenib -0.004 | [3] -0.066 | alisertib -0.013 | [4] 0.004 | gefitinib -0.067 | lapatinib -0.003 | pictilisib -0.032 | crizotinib 0.044 | [5] -0.108 | duvelisib 0.02 | gandotinib 0.047 | tozasertib -0.062 | doramapimod 0.005 | bafetinib -0.056 | [6] 0.02

ASAP3 (UniProt Q8TDY4)
inactive: alvocidib -0.083 | Tubastatin A -0.09 | [1] 0.076 | defactinib 0.011 | [2] -0.037 | encorafenib 0.038 | [3] 0.175 | alisertib -0.038 | [4] 0.018 | gefitinib 0.012 | lapatinib -0.006 | pictilisib -0.141 | crizotinib 0.014 | [5] 0.017 | duvelisib -0.064 | gandotinib -0.032 | tozasertib -0.034 | doramapimod -0.04 | bafetinib -0.11 | [6] 0.048

ARHGDIA (UniProt P52565)
inactive: alvocidib -0.027 | Tubastatin A 0.059 | [1] -0.038 | defactinib -0.006 | [2] 0.048 | encorafenib -0.01 | [3] -0.013 | alisertib 0.014 | [4] 0.013 | gefitinib -0.003 | lapatinib -0.028 | pictilisib 0.018 | crizotinib 0.009 | [5] -0.163 | duvelisib -0.022 | gandotinib 0.052 | tozasertib -0.001 | doramapimod 0.001 | bafetinib 0.008 | [6] 0.012

ARHGEF7 isoform 5 (UniProt Q14155)
inactive: alvocidib 0.012 | Tubastatin A -0.017 | [1] 0.013 | defactinib 0.043 | [2] 0.033 | encorafenib 0.031 | [3] 0.061 | alisertib 0 | [4] -0.014 | gefitinib -0.008 | lapatinib 0.027 | pictilisib -0.031 | crizotinib 0.035 | [5] 0.018 | duvelisib -0.03 | gandotinib -0.025 | tozasertib 0.012 | doramapimod 0.001 | bafetinib 0.01 | [6] 0.018
